The target of this assay is Aβ (assembly state not specified) (UniProt P05067). In words: indirect ELISA of 293-F supernatants on Aβ42 protofibrils, monomers and fibrils; class in Table 4. A general note: An ELISA detects its analyte on a solid surface through an enzyme-linked reagent.

By UniProt entry, the sequences of proteins in these tests, tags left out. Residues count along the entry.
UniProt P05067, residues 672-713: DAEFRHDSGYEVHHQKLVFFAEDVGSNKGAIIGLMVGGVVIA

Results are given in words; binding and its absence hold for the method and conditions named. Some binding calls cover weakened binding; strength is not graded here.

B1: mAbSL 513 (antibody, V domains shown)
VH: QQQLVESGGGLVKPGASLTLTCTASGFSFSRYSDMCWVRQPPGKGLEWIACIGISSGTTYYASWAKGRFTISKTSSTTVTLQMTSLTAADTATYLCTRAIGPFHFNLWGPGTLVTVSS
VL: AIVMTQTPSSRSVPVGDTVTISCQASESVYNNNRLAWYQQKAGQPPKLLIYGASTLASGVPSRFKGSGSGTQFTLTISDVVCDDAATYYCAGYKSGSTDGCAFGGGTEVVVKG
For the molecule B1, the binding entry is given as “binds”.

B2: mAbSL 550 (antibody, V domains shown)
VH: QQQLVESGGGLVKPGASLTLTCTASGFSFSRDSDMCWVRQPPGKGLEWIACIGISSGITYYANWARGRFTISKTSSTTVTLQMTSLTAADTATYFCARAIGPFHFNLWGPGTLVTVSS
VL: AIVMTQTPSSKSVPVGDTVTIDCQASESVYSKNRLAWYQQKPGQPPKLLIYGASTLASGVPSRFKGSGSGTQFTLTVSDVVCDDAATYYCAGYKSGIGDGIAFGGGTEVVVKG
As to B2, the binding result was “binds”.

(Values after patent US20220356233A1.)
